# Measured values as given in paper PMC3961280.
# The chains behind the UniProt entries cited, without tags or fusion partners. Where a name states a change or a piece, a line headed by the entry shows the natural chain unless it says otherwise.
# UniProt Q584V9: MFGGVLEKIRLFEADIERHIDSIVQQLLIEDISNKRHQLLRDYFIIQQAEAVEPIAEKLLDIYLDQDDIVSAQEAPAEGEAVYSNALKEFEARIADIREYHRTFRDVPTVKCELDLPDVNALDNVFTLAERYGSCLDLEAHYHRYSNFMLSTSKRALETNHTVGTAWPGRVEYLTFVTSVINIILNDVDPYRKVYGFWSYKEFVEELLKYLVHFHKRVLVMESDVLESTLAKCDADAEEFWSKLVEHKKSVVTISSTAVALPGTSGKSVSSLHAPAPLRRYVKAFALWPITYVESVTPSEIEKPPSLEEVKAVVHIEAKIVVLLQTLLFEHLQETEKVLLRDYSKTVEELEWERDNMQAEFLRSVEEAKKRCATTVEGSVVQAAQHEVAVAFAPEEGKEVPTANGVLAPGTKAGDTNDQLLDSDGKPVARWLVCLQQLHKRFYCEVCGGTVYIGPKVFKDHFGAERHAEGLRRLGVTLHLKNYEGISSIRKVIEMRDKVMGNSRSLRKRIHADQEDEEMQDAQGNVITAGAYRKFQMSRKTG
# UniProt Q586K6: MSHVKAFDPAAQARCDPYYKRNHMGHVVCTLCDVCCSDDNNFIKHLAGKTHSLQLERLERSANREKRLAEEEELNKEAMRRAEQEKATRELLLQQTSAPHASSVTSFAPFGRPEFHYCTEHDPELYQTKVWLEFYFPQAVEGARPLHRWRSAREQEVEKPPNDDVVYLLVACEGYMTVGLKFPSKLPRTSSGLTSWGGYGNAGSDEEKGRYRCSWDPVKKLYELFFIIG
# UniProt Q57WZ5: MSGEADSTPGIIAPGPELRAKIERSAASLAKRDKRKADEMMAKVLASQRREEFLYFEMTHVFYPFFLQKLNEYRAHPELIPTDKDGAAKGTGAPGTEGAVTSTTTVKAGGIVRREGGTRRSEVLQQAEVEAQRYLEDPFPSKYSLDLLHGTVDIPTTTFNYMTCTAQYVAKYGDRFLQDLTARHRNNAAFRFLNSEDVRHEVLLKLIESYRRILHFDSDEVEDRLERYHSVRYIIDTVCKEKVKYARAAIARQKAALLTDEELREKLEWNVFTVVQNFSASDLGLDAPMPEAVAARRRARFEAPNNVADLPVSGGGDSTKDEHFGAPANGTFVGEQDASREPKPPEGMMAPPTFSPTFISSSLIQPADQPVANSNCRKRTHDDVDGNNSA
# UniProt Q57XR8: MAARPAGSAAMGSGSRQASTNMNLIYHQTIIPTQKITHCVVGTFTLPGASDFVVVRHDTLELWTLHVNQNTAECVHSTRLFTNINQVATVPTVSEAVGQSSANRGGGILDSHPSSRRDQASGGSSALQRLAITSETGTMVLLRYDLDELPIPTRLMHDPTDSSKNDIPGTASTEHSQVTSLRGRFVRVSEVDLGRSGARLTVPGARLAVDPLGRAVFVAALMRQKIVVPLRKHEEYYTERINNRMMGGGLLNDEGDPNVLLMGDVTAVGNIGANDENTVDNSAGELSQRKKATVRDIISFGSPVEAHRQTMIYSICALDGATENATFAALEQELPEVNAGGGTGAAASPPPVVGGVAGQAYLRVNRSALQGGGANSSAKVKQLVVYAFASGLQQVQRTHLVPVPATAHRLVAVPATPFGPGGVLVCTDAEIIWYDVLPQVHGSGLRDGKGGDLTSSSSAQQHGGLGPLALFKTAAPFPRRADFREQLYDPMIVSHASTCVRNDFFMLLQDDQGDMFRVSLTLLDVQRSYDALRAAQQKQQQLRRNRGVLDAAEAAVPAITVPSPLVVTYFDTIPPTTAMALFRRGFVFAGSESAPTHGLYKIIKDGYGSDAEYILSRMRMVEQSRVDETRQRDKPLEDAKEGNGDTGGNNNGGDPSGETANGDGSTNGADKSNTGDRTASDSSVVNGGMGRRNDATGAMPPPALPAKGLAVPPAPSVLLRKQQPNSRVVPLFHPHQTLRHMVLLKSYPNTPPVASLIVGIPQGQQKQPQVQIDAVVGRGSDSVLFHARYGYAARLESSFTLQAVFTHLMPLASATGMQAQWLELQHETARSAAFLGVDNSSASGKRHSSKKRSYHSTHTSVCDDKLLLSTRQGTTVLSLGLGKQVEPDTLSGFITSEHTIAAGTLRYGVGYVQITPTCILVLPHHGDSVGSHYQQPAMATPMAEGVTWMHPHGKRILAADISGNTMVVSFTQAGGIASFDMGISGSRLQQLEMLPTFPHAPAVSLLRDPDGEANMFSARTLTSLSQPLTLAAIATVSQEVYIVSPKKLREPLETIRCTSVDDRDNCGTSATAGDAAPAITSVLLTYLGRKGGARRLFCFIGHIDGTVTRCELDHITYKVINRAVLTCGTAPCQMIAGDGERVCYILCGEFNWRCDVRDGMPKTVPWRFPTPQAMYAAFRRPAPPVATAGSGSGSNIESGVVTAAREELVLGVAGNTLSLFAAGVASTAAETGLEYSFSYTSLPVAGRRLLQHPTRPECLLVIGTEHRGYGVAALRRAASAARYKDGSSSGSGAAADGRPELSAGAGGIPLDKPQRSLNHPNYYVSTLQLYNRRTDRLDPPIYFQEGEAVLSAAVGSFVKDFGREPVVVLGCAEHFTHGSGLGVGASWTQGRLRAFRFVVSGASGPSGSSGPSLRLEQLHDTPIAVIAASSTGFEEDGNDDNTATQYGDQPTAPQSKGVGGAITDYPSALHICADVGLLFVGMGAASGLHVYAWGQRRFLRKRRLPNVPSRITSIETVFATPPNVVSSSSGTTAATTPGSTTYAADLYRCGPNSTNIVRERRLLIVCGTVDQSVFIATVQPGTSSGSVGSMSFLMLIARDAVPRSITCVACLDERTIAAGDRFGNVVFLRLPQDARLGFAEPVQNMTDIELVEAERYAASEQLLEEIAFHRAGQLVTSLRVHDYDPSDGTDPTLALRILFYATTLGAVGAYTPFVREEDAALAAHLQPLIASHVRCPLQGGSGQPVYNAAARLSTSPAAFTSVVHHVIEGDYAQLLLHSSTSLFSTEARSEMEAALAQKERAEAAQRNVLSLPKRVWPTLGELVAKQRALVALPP
# Molecular target: C-terminally TAP-tagged T. brucei SF3a60 (Trypanosoma brucei (strain Lister 427)) (UniProt Q584V9)
# Test: affinity purification with mass spectrometry; tandem affinity purification of C-terminally TAP-tagged SF3a60 from procyclic T. brucei (100 ng/ml tetracycline, 24 h); 12% SDS-PAGE, SYPRO Ruby; strongly stained bands excised and identified by nano-HPLC ESI-QUAD TOF MS; TAP tag alone as control
row,binding,Substance
1,binds,T. brucei SF3a66 (Tb927.2.2270) (from UniProt Q586K6)
2,binds,T. brucei SF3a120 (Tb927.3.1140) (from UniProt Q57WZ5)
3,binds,T. brucei SF3b130 (Tb927.7.6980) (from UniProt Q57XR8)

# Results are given in words; binding and its absence hold for the method and conditions named. In cells and extracts the contact can be indirect. These calls come from enrichment with a bait or labelling near it, and not all partners need be listed.
